Test results as given in US20220074941A1, “HSP90 COMBINATION THERAPY” (Sloan-Kettering Institute for Cancer Research, priority 2011, published 2022).

B1: Casein kinase I isoform alpha (protein, UniProt P48729 2-337, looked up)
Casein kinase I isoform alpha: ASSSGSKAEFIVGGKYKLVRKIGSGSFGDIYLAINITNGEEVAVKLESQKARHPQLLYESKLYKILQGGVGIPHIRWYGQEKDYNVLVMDLLGPSLEDLFNFCSRRFTMKTVLMLADQMISRIEYVHTKNFIHRDIKPDNFLMGIGRHCNKLFLIDFGLAKKYRDNRTRQHIPYREDKNLTGTARYASINAHLGIEQSRRDDMESLGYVLMYFNRTSLPWQGLKAATKKQKYEKISEKKMSTPVEVLCKGFPAEFAMYLNYCRGLRFEEAPDYMYLRQLFRILFRTLNHQYDYTFDWTMLKQKAAQQAASSSGQGQQAQTPTGKQTDKTKSNMKGF
B2: N-terminal kinase-like protein; SCYL1, telomerase i (protein, UniProt Q96KG9 1-808, looked up)
N-terminal kinase-like protein: MWFFARDPVRDFPFELIPEPPEGGLPGPWALHRGRKKATGSPVSIFVYDVKPGAEEQTQVAKAAFKRFKTLRHPNILAYIDGLETEKCLHVVTEAVTPLGIYLKARVEAGGLKELEISWGLHQIVKALSFLVNDCSLIHNNVCMAAVFVDRAGEWKLGGLDYMYSAQGNGGGPPRKGIPELEQYDPPELADSSGRVVREKWSADMWRLGCLIWEVFNGPLPRAAALRNPGKIPKTLVPHYCELVGANPKVRPNPARFLQNCRAPGGFMSNRFVETNLFLEEIQIKEPAEKQKFFQELSKSLDAFPEDFCRHKVLPQLLTAFEFGNAGAVVLTPLFKVGKFLSAEEYQQKIIPVVVKMFSSTDRAMRIRLLQQMEQFIQYLDEPTVNTQIFPHVVHGFLDTNPAIREQTVKSMLLLAPKLNEANLNVELMKHFARLQAKDEQGPIRCNTTVCLGKIGSYLSASTRHRVLTSAFSRATRDPFAPSRVAGVLGFAATHNLYSMNDCAQKILPVLCGLTVDPEKSVRDQAFKAIRSFLSKLESVSEDPTQLEEVEKDVHAASSPGMGGAAASWAGWAVTGVSSLTSKLIRSHPTTAPTETNIPQRPTPEGVPAPAPTPVPATPTTSGHWETQEEDKDTAEDSSTADRWDDEDWGSLEQEAESVLAQQDDWSTGGQVSRASQVSNSDHKSSKSPESDWSSWEAEGSWEQGWQEPSSQEPPPDGTRLASEYNWGGPESSDKGDPFATLSARPSTQPRPDSWGEDNWEGLETDSRQVKAELARKKREERRREMEAKRAERKVAKGPMKLGARKLD
B3: Telomere length regulation protein TEL2 homolog (protein, UniProt Q9Y4R8 1-837, looked up)
Telomere length regulation …: MEPAPSEVRLAVREAIHALSSSEDGGHIFCTLESLKRYLGEMEPPALPREKEEFASAHFSPVLRCLASRLSPAWLELLPHGRLEELWASFFLEGPADQAFLVLMETIEGAAGPSFRLMKMARLLARFLREGRLAVLMEAQCRQQTQPGFILLRETLLGKVVALPDHLGNRLQQENLAEFFPQNYFRLLGEEVVRVLQAVVDSLQGGLDSSVSFVSQVLGKACVHGRQQEILGVLVPRLAALTQGSYLHQRVCWRLVEQVPDRAMEAVLTGLVEAALGPEVLSRLLGNLVVKNKKAQFVMTQKLLFLQSRLTTPMLQSLLGHLAMDSQRRPLLLQVLKELLETWGSSSAIRHTPLPQQRHVSKAVLICLAQLGEPELRDSRDELLASMMAGVKCRLDSSLPPVRRLGMIVAEVVSARIHPEGPPLKFQYEEDELSLELLALASPQPAGDGASEAGTSLVPATAEPPAETPAEIVDGGVPQAQLAGSDSDLDSDDEFVPYDMSGDRELKSSKAPAYVRDCVEALTTSEDIERWEAALRALEGLVYRSPTATREVSVELAKVLLHLEEKTCVVGFAGLRQRALVAVTVTDPAPVADYLTSQFYALNYSLRQRMDILDVLTLAAQELSRPGCLGRTPQPGSPSPNTPCLPEAAVSQPGSAVASDWRVVVEERIRSKTQRLSKGGPRQGPAGSPSRFNSVAGHFFFPLLQRFDRPLVTFDLLGEDQLVLGRLAHTLGALMCLAVNTTVAVAMGKALLEFVWALRFHIDAYVRQGLLSAVSSVLLSLPAARLLEDLMDELLEARSWLADVAEKDPDEDCRTLALRALLLLQRLKNRLLPPASP
B4: Serine/threonine-protein phosphatase 6 regulatory subunit 3; SAPS3 (protein, UniProt Q5H9R7 1-873, looked up)
Serine/threonine-protein …: MFWKFDLHSSSHIDTLLEREDVTLKELMDEEDVLQECKAQNRKLIEFLLKAECLEDLVSFIIEEPPQDMDEKIRYKYPNISCELLTSDVSQMNDRLGEDESLLMKLYSFLLNDSPLNPLLASFFSKVLSILISRKPEQIVDFLKKKHDFVDLIIKHIGTSAIMDLLLRLLTCIEPPQPRQDVLNWLNEEKIIQRLVEIVHPSQEEDRHSNASQSLCEIVRLSRDQMLQIQNSTEPDPLLATLEKQEIIEQLLSNIFHKEKNESAIVSAIQILLTLLETRRPTFEGHIEICPPGMSHSACSVNKSVLEAIRGRLGSFHELLLEPPKKSVMKTTWGVLDPPVGNTRLNVIRLISSLLQTNTSSINGDLMELNSIGVILNMFFKYTWNNFLHTQVEICIALILASPFENTENATITDQDSTGDNLLLKHLFQKCQLIERILEAWEMNEKKQAEGGRRHGYMGHLTRIANCIVHSTDKGPNSALVQQLIKDLPDEVRERWETFCTSSLGETNKRNTVDLVTTCHIHSSSDDEIDFKETGFSQDSSLQQAFSDYQMQQMTSNFIDQFGFNDEKFADQDDIGNVSFDRVSDINFTLNTNESGNIALFEACCKERIQQFDDGGSDEEDIWEEKHIAFTPESQRRSSSGSTDSEESTDSEEEDGAKQDLFEPSSANTEDKMEVDLSEPPNWSANFDVPMETTHGAPLDSVGSDVWSTEEPMPTKETGWASFSEFTSSLSTKDSLRSNSPVEMETSTEPMDPLTPSAAALAVQPEAAGSVAMEASSDGEEDAESTDKVTETVMNGGMKETLSLTVDAKTETAVFKSEEGKLSTSQDAACKDAEECPETAEAKCAAPRPPSSSPEQRTGQPSAPGDTSVNGPV
B5: Inhibitor of nuclear factor kappa-B kinase subunit alpha (protein, UniProt O15111 1-745, looked up)
Inhibitor of nuclear factor …: MERPPGLRPGAGGPWEMRERLGTGGFGNVCLYQHRELDLKIAIKSCRLELSTKNRERWCHEIQIMKKLNHANVVKACDVPEELNILIHDVPLLAMEYCSGGDLRKLLNKPENCCGLKESQILSLLSDIGSGIRYLHENKIIHRDLKPENIVLQDVGGKIIHKIIDLGYAKDVDQGSLCTSFVGTLQYLAPELFENKPYTATVDYWSFGTMVFECIAGYRPFLHHLQPFTWHEKIKKKDPKCIFACEEMSGEVRFSSHLPQPNSLCSLVVEPMENWLQLMLNWDPQQRGGPVDLTLKQPRCFVLMDHILNLKIVHILNMTSAKIISFLLPPDESLHSLQSRIERETGINTGSQELLSETGISLDPRKPASQCVLDGVRGCDSYMVYLFDKSKTVYEGPFASRSLSDCVNYIVQDSKIQLPIIQLRKVWAEAVHYVSGLKEDYSRLFQGQRAAMLSLLRYNANLTKMKNTLISASQQLKAKLEFFHKSIQLDLERYSEQMTYGISSEKMLKAWKEMEEKAIHYAEVGVIGYLEDQIMSLHAEIMELQKSPYGRRQGDLMESLEQRAIDLYKQLKHRPSDHSYSDSTEMVKIIVHTVQSQDRVLKELFGHLSKLLGCKQKIIDLLPKVEVALSNIKEADNTVMFMQGKRQKEIWHLLKIACTQSSARSLVGSSLEGAVTPQTSAWLPPTSAEHDHSLSCVVTPQDGETSAQMIEENLNCLGHLSTIIHEANEEQGNSMMNLDWSWLTE
B6: Arf-GAP with coiled-coil, ANK repeat and PH domain-containing protein 2 (protein, UniProt Q15057 1-778, looked up)
Arf-GAP with coiled-coil, ANK …: MKMTVDFEECLKDSPRFRAALEEVEGDVAELELKLDKLVKLCIAMIDTGKAFCVANKQFMNGIRDLAQYSSNDAVVETSLTKFSDSLQEMINFHTILFDQTQRSIKAQLQNFVKEDLRKFKDAKKQFEKVSEEKENALVKNAQVQRNKQHEVEEATNILTATRKCFRHIALDYVLQINVLQSKRRSEILKSMLSFMYAHLAFFHQGYDLFSELGPYMKDLGAQLDRLVVDAAKEKREMEQKHSTIQQKDFSSDDSKLEYNVDAANGIVMEGYLFKRASNAFKTWNRRWFSIQNNQLVYQKKFKDNPTVVVEDLRLCTVKHCEDIERRFCFEVVSPTKSCMLQADSEKLRQAWIKAVQTSIATAYREKGDESEKLDKKSSPSTGSLDSGNESKEKLLKGESALQRVQCIPGNASCCDCGLADPRWASINLGITLCIECSGIHRSLGVHFSKVRSLTLDTWEPELLKLMCELGNDVINRVYEANVEKMGIKKPQPGQRQEKEAYIRAKYVERKFVDKYSISLSPPEQQKKFVSKSSEEKRLSISKFGPGDQVRASAQSSVRSNDSGIQQSSDDGRESLPSTVSANSLYEPEGERQDSSMFLDSKHLNPGLQLYRASYEKNLPKMAEALAHGADVNWANSEENKATPLIQAVLGGSLVTCEFLLQNGANVNQRDVQGRGPLHHATVLGHTGQVCLFLKRGANQHATDEEGKDPLSIAVEAANADIVTLLRLARMNEEMRESEGLYGQPGDETYQDIFRDFSQMASNNPEKLNRFQQDSQKF

Tested on: Hsp90 complexes in K562 cell extract
Assay: Nano-LC-MS/MS of PU-beads pull-downs
Assay type: binding
Conditions: for MAXIMUM matched peptides: maximum over fractions JA01-JA14; for Total fmol: protein isolated in PU-beads pull-downs, Waters Xevo QTof MS; for Matched Peptides by Fraction JA03: Run1, gel size cut 110-150; for Matched Peptides by Fraction JA10: Run2, gel size cut 110-150; for Matched Peptides by Fraction JA04: Run1, gel size cut 80-110; for Matched Peptides by Fraction JA11: Run2, gel size cut 80-110
Procedure: Protein cargo isolated from cell lysate with PU-beads or control-beads was subjected to proteomic analysis by nano liquid chromatography coupled to tandem mass spectrometry (nano LC-MS/MS). Initial protein identification was performed using the Mascot search engine, and was further evaluated using Scaffold Proteome Software (Tables 5a-d).
Lysates prepared as mentioned above were first pre-cleaned by incubation with control beads overnight at 4° C. […] Beads were washed with lysis buffer, proteins eluted by boiling in 2% SDS, separated on a denaturing gel and Coomassie stained according to manufacturer's procedure (Biorad). […] Analyses of the batch purified pools were done using a QSTAR-Elite hybrid quadrupole time-of-flight mass spectrometer (QTof MS) (AB/MDS Sciex), equipped with a nano spray ion source. Peptide mixtures (in 20 μL) are loaded onto a trapping guard column (0.3×5-mm PepMap C18 100 cartridge from LC Packings) using an Eksigent nano MDLC system (Eksigent Technologies, Inc) at a flow rate of 20 μL/min. […] Electrospray ionization (ESI) needle voltage was set at about 1800 V. The mass analyzer is operated in automatic, data-dependent MS/MS acquisition mode, with the threshold set to 10 counts per second of doubly or triply charged precursor ions selected for fragmentation scans. Survey scans of 0.25 sec are recorded from 400 to 1800 amu; up to 3 MS/MS scans are then collected sequentially for the selected precursor ions, recording from 100 to 1800 amu. The collision energy is automatically adjusted in accordance with the m/z value of the precursor ions selected for MS/MS. Selected precursor ions are excluded from repeated selection for 60 sec after the end of the corresponding fragmentation duty cycle. […] One missed tryptic cleavage site was allowed, precursor ion mass tolerance=0.4 Da fragment ion mass tolerance=0.4 Da, protein modifications were allowed for Met-oxide, Cys-acrylamide and N-terminal acetylation. MudPit scoring was typically applied with ‘require bold red’ activated, and using significance threshold score p<0.05. Unique peptide counts (or ‘spectral counts’) and percent sequence coverages for all identified proteins were exported to Scaffold Proteome Software (version 2_06_01, www.proteomesoftware.com) for further bioinformatic analysis (Table 5a). Using output from Mascot, Scaffold validates, organizes, and interprets mass spectrometry data, allowing more easily to manage large amounts of data, to compare samples, and to search for protein modifications.

| Molecule | Matched Peptides by Fraction JA07 (PU-beads pull-down, Run1, gel size cut <40) | Matched Peptides by Fraction JA14 (PU-beads pull-down, Run2, gel size cut <40) | MAXIMUM matched peptides (PU-beads pull-down) | Total fmol [fmol] | Matched Peptides by Fraction JA03 (PU-beads pull-down) | Matched Peptides by Fraction JA10 (PU-beads pull-down) | Matched Peptides by Fraction JA04 (PU-beads pull-down) | Matched Peptides by Fraction JA11 (PU-beads pull-down) |
| --- | --- | --- | --- | --- | --- | --- | --- | --- |
| B1 | 5 | 7 | 7 | 7.8446 | – | – | – | – |
| B2 | – | – | 21 | 14.6654 | 11 | 21 | – | – |
| B3 | – | – | 25 | 7.6607 | – | – | 25 | 20 |
| B4 | – | – | 24 | 10.1079 | 16 | 24 | – | – |
| B5 | – | – | 16 | 2.1707 | – | – | 16 | – |
| B6 | – | – | 22 | 4.8244 | – | – | 18 | 22 |
